Results are given in words; binding and its absence hold for the method and conditions named. Binding seen in cells or lysates may run through a third protein. Some entries that bind do so weakly or less than the wild type. Blank lines part the entries; values can stand above or below the substance they belong to.
How the values were obtained:
[1] = target: SMARCA4 (human) (UniProt P51532); experiment: co-immunoprecipitation from YB5 lysate with anti-CDK9 antibody, Western blot
[2] = target: SMARCA4 (human) (UniProt P51532); experiment: FIG. 43A: co-immunoprecipitation from YB5 lysate with anti-CDK9 antibody, Western blot
[3] = target: T1, CDK9 (Homo sapiens, UniProt P50750); experiment: co-immunoprecipitation from transfected HEK293T lysate with FLAG antibody, Western blot for CDK9
[4] = target: T1, CDK9; experiment: FIG. 43B top: IP with FLAG antibody from HEK293T cells transfected with FLAG-SMARCA4, co-precipitation of CDK9 by Western blot
[5] = target: SMARCA4 (human) (UniProt P51532); experiment: FIG. 43B bottom: IP with SMARCA4 antibody from HEK293T cells transfected with GFP-CDK9, co-precipitation of GFP-CDK9 by Western blot
[6] = target: SMARCA4 (human) (UniProt P51532); experiment: co-immunoprecipitation from transfected HEK293T lysate, Western blot

Sequences of proteins named here, by UniProt entry; tags and fusion partners are left off.
UniProt P51532: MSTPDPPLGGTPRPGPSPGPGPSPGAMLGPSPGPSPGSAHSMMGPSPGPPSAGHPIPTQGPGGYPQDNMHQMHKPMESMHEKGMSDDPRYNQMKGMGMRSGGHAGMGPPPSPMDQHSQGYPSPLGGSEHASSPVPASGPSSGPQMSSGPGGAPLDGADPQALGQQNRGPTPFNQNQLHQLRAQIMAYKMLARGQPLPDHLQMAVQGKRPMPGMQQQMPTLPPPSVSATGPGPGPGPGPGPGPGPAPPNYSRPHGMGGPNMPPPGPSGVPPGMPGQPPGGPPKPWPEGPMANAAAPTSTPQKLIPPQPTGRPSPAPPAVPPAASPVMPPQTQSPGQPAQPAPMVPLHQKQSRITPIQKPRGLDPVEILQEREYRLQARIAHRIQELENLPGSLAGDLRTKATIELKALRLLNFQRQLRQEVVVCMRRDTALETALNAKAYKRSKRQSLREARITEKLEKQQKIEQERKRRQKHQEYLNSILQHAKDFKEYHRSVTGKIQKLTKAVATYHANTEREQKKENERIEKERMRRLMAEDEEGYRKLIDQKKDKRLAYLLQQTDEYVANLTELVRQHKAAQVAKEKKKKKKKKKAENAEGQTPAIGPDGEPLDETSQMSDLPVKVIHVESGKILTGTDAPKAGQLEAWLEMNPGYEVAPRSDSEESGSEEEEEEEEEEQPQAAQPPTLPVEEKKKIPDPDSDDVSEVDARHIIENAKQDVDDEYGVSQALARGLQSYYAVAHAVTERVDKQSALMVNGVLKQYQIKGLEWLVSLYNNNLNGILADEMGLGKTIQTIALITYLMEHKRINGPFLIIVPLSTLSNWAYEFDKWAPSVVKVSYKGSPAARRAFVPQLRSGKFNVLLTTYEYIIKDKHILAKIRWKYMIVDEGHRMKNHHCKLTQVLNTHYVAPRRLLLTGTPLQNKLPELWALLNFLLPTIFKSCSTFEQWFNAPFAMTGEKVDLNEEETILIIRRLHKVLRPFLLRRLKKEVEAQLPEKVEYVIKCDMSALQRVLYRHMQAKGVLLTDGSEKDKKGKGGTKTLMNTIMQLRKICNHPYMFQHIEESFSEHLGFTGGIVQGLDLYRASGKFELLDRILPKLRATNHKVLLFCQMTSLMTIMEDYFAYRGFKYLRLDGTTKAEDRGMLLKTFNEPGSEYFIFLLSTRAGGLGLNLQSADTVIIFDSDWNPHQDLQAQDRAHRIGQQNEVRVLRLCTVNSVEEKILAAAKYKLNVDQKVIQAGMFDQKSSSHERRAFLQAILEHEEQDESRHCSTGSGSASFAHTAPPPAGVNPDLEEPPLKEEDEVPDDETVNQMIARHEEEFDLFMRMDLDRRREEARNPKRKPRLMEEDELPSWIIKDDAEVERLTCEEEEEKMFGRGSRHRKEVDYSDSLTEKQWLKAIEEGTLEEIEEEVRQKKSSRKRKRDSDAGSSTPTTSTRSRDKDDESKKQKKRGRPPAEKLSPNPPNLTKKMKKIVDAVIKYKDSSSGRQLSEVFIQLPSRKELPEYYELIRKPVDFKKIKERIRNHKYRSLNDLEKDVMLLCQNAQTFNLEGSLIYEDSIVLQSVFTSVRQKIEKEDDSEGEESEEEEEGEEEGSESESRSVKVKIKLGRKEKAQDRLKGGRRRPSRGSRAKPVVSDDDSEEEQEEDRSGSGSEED
UniProt P50750: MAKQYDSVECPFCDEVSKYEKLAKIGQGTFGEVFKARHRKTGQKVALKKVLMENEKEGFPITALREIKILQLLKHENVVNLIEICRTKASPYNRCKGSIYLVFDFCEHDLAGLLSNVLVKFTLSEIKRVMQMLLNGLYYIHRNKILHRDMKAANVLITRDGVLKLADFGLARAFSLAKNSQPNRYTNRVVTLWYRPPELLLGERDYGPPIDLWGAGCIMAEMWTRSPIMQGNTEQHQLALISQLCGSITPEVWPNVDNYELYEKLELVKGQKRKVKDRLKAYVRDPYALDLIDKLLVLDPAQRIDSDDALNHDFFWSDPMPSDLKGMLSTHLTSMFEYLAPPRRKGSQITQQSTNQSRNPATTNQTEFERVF

- binding [1]: binds
- binding [2]: binds
Substance: CDK9 (from UniProt P50750 1-372) (enzyme)

- binding [3]: binds
- binding [4]: binds
Substance: FLAG-SMARCA4 (from UniProt P51532 1-1647)

- binding [5]: binds
- binding [6]: binds
Substance: GFP-CDK9 (from UniProt P50750 1-372)
